According to the supplement of paper PMC6411743:
± gives the standard deviation of the averaged measurements. Only a part is listed here, and it is no random draw.

Legend:
Test in all cases: NP40-soluble protein abundance relative to vehicle (solubility fold change) (ratio); higher = more soluble protein in presence of ATP
UniProt Q9NUS5 = target: T1, UniProt Q9NUS5
T1 sequence (whole entry): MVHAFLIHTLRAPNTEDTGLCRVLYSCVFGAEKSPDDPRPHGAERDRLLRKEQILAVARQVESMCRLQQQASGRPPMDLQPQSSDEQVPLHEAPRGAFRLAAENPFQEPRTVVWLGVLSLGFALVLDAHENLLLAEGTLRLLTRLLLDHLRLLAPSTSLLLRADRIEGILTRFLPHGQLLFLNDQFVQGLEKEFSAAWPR
How it was run: (§1)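 Jurkat crude lysate prepared with a Dounce homogeniser was treated at eight concentrations spanning 0.1 to 10 mM, 10 min at room temperature then 3 min at 37 °C. Solubilisation with 0.8% NP40 and benzonase and ultracentrifugation preceded TMT labelling of the supernatant for LC-MS/MS. Fold change against the detergent-processed vehicle was determined per replicate from vsn-normalised intensities, across three independent experiments.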

[1] = target: T2, UniProt Q9NVH6 and related entries
T2 sequence (whole entry): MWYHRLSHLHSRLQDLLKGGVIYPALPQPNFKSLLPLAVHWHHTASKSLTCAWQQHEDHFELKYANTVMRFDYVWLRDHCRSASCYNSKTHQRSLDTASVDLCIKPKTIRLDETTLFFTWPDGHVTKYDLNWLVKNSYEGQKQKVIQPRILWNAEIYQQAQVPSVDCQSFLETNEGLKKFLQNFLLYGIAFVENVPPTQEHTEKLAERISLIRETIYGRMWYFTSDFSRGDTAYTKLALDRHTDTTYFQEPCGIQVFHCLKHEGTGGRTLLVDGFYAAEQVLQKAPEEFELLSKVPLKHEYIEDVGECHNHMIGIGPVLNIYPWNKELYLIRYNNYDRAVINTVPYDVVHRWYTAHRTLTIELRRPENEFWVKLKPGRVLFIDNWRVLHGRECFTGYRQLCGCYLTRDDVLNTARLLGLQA
How it was run: as §1

[2] = target: T3, UniProt Q9NVS9 and related entries
T3 sequence (whole entry): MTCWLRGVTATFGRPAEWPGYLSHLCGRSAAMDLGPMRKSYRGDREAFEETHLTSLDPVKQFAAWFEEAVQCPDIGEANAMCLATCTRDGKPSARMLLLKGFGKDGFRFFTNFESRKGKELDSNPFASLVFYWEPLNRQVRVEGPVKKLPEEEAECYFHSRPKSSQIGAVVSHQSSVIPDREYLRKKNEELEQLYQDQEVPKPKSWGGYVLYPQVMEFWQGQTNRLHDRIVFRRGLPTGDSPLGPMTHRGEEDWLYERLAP
How it was run: as §1

[3] = target: T4, UniProt Q9NWS8 and related entries
T4 sequence (whole entry): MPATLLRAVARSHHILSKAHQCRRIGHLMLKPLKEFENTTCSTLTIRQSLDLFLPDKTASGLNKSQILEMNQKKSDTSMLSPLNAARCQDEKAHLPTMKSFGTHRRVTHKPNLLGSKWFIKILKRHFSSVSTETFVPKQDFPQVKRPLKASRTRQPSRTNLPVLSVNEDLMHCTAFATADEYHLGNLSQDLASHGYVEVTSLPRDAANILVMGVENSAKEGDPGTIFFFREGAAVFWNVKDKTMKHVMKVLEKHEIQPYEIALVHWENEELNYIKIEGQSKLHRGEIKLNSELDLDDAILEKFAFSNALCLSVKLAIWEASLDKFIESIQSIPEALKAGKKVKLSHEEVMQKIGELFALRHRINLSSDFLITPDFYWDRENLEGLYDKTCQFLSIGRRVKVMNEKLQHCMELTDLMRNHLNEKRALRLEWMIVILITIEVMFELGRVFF
How it was run: as §1

[4] = target: T5, UniProt Q9P0N9 and related entries
T5 sequence (whole entry): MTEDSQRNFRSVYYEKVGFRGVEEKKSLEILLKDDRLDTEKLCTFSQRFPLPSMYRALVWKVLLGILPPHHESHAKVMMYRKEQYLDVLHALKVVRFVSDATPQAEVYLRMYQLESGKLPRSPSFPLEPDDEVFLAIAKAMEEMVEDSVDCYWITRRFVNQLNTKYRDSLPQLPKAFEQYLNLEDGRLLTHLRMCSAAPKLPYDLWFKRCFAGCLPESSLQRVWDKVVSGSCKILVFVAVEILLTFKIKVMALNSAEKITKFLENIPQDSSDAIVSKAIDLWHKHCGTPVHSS
How it was run: as §1

VPS45 = target: T6, VPS45 (UniProt Q9NRW7)
T6 sequence (whole entry): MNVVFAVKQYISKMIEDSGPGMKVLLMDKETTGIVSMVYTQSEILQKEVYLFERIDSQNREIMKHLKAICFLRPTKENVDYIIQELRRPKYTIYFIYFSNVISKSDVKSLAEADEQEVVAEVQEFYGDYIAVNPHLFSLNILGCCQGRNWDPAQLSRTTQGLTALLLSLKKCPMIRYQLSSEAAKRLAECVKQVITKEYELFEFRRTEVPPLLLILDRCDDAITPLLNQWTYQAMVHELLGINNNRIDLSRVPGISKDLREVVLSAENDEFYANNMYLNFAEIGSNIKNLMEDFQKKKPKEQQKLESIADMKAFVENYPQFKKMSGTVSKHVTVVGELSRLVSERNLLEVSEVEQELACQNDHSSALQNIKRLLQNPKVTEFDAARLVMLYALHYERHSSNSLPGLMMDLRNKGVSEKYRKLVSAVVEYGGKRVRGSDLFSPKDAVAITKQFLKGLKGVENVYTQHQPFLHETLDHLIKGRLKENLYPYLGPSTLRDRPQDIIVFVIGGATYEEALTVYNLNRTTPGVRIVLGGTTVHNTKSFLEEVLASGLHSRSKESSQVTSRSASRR
How it was run: as §1

SMILES: Nc1ncnc2c1ncn2[C@@H]1O[C@H](COP(=O)(O)OP(=O)(O)OP(=O)(O)O)[C@@H](O)[C@H]1O [adenosine triphosphate]
- NP40-soluble protein abundance (UniProt Q9NUS5; concentration: 8mM): 0.957 ± 0.015
- NP40-soluble protein abundance (UniProt Q9NUS5; concentration: 10mM): 0.9157 ± 0.0086
- NP40-soluble protein abundance ([1]; concentration: 1mM): 0.993 ± 0.072
- NP40-soluble protein abundance ([1]; concentration: 2mM): 1.04 ± 0.054
- NP40-soluble protein abundance ([1]; concentration: 4mM): 1.02 ± 0.026
- NP40-soluble protein abundance ([1]; concentration: 6mM): 0.943 ± 0.019
- NP40-soluble protein abundance ([1]; concentration: 8mM): 1.01 ± 0.027
- NP40-soluble protein abundance ([1]; concentration: 10mM): 0.987 ± 0.076
- NP40-soluble protein abundance ([2]; concentration: 1mM): 0.987 ± 0.018
- NP40-soluble protein abundance ([2]; concentration: 2mM): 0.9567 ± 0.0071
- NP40-soluble protein abundance ([2]; concentration: 4mM): 0.9425 ± 0.0058
- NP40-soluble protein abundance ([2]; concentration: 6mM): 0.9778 ± 0.0094
- NP40-soluble protein abundance ([2]; concentration: 8mM): 0.951 ± 0.012
- NP40-soluble protein abundance ([2]; concentration: 10mM): 0.925 ± 0.032
- NP40-soluble protein abundance ([3]; concentration: 1mM): 1 ± 0.057
- NP40-soluble protein abundance ([3]; concentration: 2mM): 0.972 ± 0.07
- NP40-soluble protein abundance ([3]; concentration: 4mM): 0.972 ± 0.11
- NP40-soluble protein abundance ([3]; concentration: 6mM): 0.919 ± 0.089
- NP40-soluble protein abundance ([3]; concentration: 8mM): 0.98 ± 0.08
- NP40-soluble protein abundance ([3]; concentration: 10mM): 0.9637 ± 0.0081
- NP40-soluble protein abundance ([4]; concentration: 1mM): 1 ± 0.071
- NP40-soluble protein abundance ([4]; concentration: 2mM): 0.996 ± 0.066
- NP40-soluble protein abundance ([4]; concentration: 4mM): 0.985 ± 0.045
- NP40-soluble protein abundance ([4]; concentration: 6mM): 0.973 ± 0.029
- NP40-soluble protein abundance ([4]; concentration: 8mM): 0.969 ± 0.029
- NP40-soluble protein abundance ([4]; concentration: 10mM): 1.06 ± 0.11
- NP40-soluble protein abundance (VPS45; concentration: 1mM): 0.973 ± 0.1
- NP40-soluble protein abundance (VPS45; concentration: 2mM): 0.975 ± 0.08
- NP40-soluble protein abundance (VPS45; concentration: 4mM): 0.96 ± 0.082
- NP40-soluble protein abundance (VPS45; concentration: 6mM): 0.908 ± 0.096
- NP40-soluble protein abundance (VPS45; concentration: 8mM): 0.949 ± 0.062
- NP40-soluble protein abundance (VPS45; concentration: 10mM): 0.978 ± 0.07
